Data published in PubChem BioAssay AID489008 (National Center for Advancing Translational Sciences (NCATS), 2010).
The shares of active, inactive and inconclusive entries below differ from those in the screen. Potencies beside an inconclusive call are fits to weak or partial responses and may not hold up. Calls of active or inactive are those of the source. Calls come from the whole dose curve; as a rule, active = well fitted inhibition curve with a large enough effect; inconclusive = small, poorly fitted or top-dose-only effect; inactive = flat fitted curve, though single readings scatter.

Chains of the proteins cited; added tags and fusions are not shown. Residues count along the entry.
UniProt P02791, 2-175 limits assumed: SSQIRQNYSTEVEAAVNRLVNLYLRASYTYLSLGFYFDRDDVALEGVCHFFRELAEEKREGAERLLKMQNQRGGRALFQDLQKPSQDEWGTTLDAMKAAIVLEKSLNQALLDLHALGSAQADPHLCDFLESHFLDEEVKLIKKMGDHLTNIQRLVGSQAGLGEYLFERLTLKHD

biological target: Ferritin light chain (Equus caballus) (UniProt P02791); assay: Confirmation Assay for Identification of Novel General Anesthetics; settings: apoferritin 1-aminoanthracene fluorescence displacement; note: nearly all actives have a fitted effect of over 40% in size
Procedure, shortened: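 Competitive displacement of profluorescent 1-aminoanthracene from 10 uM horse-spleen apoferritin in 50% saturated 1-AMA/PBS; 10 min RT, fluorescence Ex 380/Em 535. Normalized to free 1-AMA and complex; four-parameter Hill fit.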
Potency is the fitted concentration of half-maximal effect.

Potency, active:
O=C1CCCCCCC1Sc1ccccc1[N+](=O)[O-] (configuration not stated) 7.94 µM
Cc1c(Br)cc(C(=O)N2CCCCCC2)c(C)c1C 17.8 µM
Nc1cc(Cl)ccc1Oc1ccc2ccccc2c1 15.8 µM
Nc1nnc(SCc2ccccc2Cl)s1 14.1 µM
Cc1ccc(Cn2cccc(NC(=O)NCc3ccccc3)c2=O)cc1 7.08 µM
Cc1ccc(NC(=O)c2ccccc2)cc1OC(=O)c1ccccc1 28.2 µM
Cc1cccc(S(=O)(=O)NCCc2ccccc2)c1 14.1 µM
O=C(O)Cc1csc(Nc2cccc(Cl)c2)n1 12.6 µM
Cc1csc(Nc2ccc(Cl)cc2)n1 31.6 µM
COc1cccc(NC(=O)N2CCCCCC2)c1 14.1 µM
Cc1ccc(S(=O)(=O)NCCC2=CCCCC2)cc1C(N)=O 7.08 µM
COc1ccc(C2=Nn3c(nnc3-c3ccc(OC)cc3)SC2)cc1 22.4 µM
Cc1ccccc1CSc1nsc(N)n1 17.8 µM
CC1CCCC(NC(=O)COC(=O)CCc2ccccc2)C1C (configuration not stated) 25.1 µM

Structural class: the compounds so far with a halogen.
Potency, active:
Cc1c(Br)cc(C(=O)N2CCCCCC2)c(C)c1C 17.8 µM
Nc1cc(Cl)ccc1Oc1ccc2ccccc2c1 15.8 µM
Nc1nnc(SCc2ccccc2Cl)s1 14.1 µM
O=C(O)Cc1csc(Nc2cccc(Cl)c2)n1 12.6 µM
Cc1csc(Nc2ccc(Cl)cc2)n1 31.6 µM

Ordered by molecular weight (descending): some entries from above.
Potency, active:
O=C1CCCCCCC1Sc1ccccc1[N+](=O)[O-] (configuration not stated) 7.94 µM
Nc1nnc(SCc2ccccc2Cl)s1 14.1 µM
Cc1csc(Nc2ccc(Cl)cc2)n1 31.6 µM

Next part.

Potency, inconclusive:
Cc1cc(Br)ccc1OCC(=O)N1CCCCCC1 31.6 µM [inhibitor, partial curve]
CC(C)(C)C(=O)NC(=S)Nc1ccc(Cc2ccncc2)cc1 31.6 µM [inhibitor, partial curve]
Cc1ccc(S(=O)(=O)n2nc(OC(=O)C(C)(C)C)cc2N)cc1 15.8 µM [inhibitor, partial curve]
CC1CCCC(C)N1C(=O)CSc1nc2ccccc2s1 (configuration not stated) 28.2 µM [inhibitor, partial curve]
S=C(c1ccc2c(c1)OCO2)N1CCCCCC1 25.1 µM [inhibitor, partial curve]
O/N=C1/CCCCc2sccc21 35.5 µM [inhibitor, partial curve]
c1ccc(Cc2nnc(Sc3ccccc3)c3ccccc23)cc1 17.8 µM [inhibitor, partial curve]
O=C1C2CCCN2C(=S)N1Cc1ccccc1 (configuration not stated) 31.6 µM [inhibitor, partial curve]
O=C1CC(C2CCCO2)C(=O)N1Cc1ccccc1 (configuration not stated) 17.8 µM [inhibitor, partial curve]
c1ccc2c(-c3nc4ncccc4o3)cccc2c1 31.6 µM [inhibitor, partial curve]
O=C(Cn1cccc1)N1CCc2ccccc21 35.5 µM [inhibitor, partial curve]
Oc1ccc(C(=S)N2CCCCC2)cc1 12.6 µM [inhibitor, partial curve]
Oc1ccc(NCc2ccccc2OCc2ccccc2F)cc1 39.8 µM [inhibitor, partial curve]
COc1ccc(CCC(=O)OCC(=O)c2cccc(OC)c2)cc1 35.5 µM [inhibitor, partial curve]
Clc1ccc(N2CCCCCC2)nn1 15.8 µM [inhibitor, partial curve]
Clc1ccccc1Oc1cnc2ccccc2n1 28.2 µM [inhibitor, partial curve]
O=S(=O)(Nc1ccc2c(c1)OCO2)c1ccccc1 35.5 µM [inhibitor, partial curve]
Cc1cc(Nc2ncc(Cl)cc2Cl)n[nH]1 14.1 µM [inhibitor, partial curve]
CC(C)C(C(=O)Nc1nccs1)c1ccccc1 (configuration not stated) 22.4 µM [inhibitor, partial curve]
CCOc1ccc(NC(=O)CNc2ccc(C)cc2Cl)cc1 31.6 µM [inhibitor, partial curve]
COc1cnc(SCc2ccc(Cl)cc2)nc1Cl 17.8 µM [inhibitor, partial curve]
Cc1cccc(-c2noc(-c3cc(C(C)C)[nH]n3)n2)c1 39.8 µM [inhibitor, partial curve]
Cc1noc(C)c1COC(=O)Cc1ccc(Cl)c(Cl)c1 35.5 µM [inhibitor, partial curve]
